These results are taken from patent US20230372302A1 (priority 2019, published 2023).

Sequences of proteins named here, by UniProt entry; tags and fusion partners are left off.
UniProt Q05940, whole entry: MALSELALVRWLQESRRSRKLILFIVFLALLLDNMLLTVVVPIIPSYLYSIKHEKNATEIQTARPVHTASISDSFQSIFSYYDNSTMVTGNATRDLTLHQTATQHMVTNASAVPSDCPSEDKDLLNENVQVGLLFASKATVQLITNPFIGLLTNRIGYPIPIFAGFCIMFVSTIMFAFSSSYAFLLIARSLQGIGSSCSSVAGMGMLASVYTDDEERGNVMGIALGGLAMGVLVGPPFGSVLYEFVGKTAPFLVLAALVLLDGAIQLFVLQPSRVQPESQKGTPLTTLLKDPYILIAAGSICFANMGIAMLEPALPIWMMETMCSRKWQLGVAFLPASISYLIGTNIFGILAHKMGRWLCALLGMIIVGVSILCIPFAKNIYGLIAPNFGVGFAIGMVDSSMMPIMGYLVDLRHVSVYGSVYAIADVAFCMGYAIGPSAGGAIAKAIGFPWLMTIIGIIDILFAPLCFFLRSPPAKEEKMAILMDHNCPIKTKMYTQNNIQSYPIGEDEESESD

Data set [1] addresses T1, recombinant human VMAT2 transporters (Homo sapiens, UniProt Q05940).
T1 construct: expressed in transfected cells; host or cells: HEK-293
It counts as binding.

In data set [2] the test system is vocal cords and respiratory muscles of rats. Conditions: rat, in vivo.

Regarding `CN1CC[C@]23c4c5ccc(O)c4O[C@H]2[C@@H](O)C=C[C@H]3[C@H]1C5` [morphine], the “binding to VMAT2 transporter” value in data set [1] is “not morphine”. Besides, the “vocal cord closure and chest wall rigidity effect (specific to F/FA)” value in data set [2] is “not demonstrated”.
